In the experiment the target is complement component C6 (human (endogenous in serum)) (UniProt P13671). Put plainly: affinity purification with mass spectrometry; control sera; in vitro complement activation, pull-down of C6 containing complexes using co-IP, then mass spectrometry.

Sequences of proteins named here, by UniProt entry; tags and fusion partners are left off. Residues count along the entry.
UniProt P13671, residues 22-934: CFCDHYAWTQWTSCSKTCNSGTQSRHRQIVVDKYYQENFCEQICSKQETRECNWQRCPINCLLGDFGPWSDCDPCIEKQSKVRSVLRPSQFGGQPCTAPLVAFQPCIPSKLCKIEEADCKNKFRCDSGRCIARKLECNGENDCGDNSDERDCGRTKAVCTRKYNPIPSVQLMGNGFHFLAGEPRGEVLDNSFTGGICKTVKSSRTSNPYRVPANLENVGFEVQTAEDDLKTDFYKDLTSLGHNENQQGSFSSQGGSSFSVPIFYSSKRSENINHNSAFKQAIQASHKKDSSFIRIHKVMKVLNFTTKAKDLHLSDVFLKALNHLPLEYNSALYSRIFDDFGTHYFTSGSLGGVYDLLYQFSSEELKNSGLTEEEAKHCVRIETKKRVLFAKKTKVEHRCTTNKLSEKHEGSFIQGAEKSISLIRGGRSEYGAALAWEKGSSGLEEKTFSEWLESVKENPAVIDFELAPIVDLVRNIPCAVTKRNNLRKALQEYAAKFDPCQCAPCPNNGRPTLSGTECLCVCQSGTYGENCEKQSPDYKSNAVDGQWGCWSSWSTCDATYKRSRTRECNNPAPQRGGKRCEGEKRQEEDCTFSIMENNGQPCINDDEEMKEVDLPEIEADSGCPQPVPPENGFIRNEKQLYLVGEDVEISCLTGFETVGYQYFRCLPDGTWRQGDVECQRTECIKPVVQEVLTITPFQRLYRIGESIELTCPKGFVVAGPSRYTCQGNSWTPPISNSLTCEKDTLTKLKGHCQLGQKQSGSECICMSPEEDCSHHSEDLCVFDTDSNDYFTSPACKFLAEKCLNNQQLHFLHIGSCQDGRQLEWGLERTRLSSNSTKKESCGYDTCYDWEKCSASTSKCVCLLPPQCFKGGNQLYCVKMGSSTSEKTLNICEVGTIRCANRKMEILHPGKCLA
UniProt P10643, residues 23-843: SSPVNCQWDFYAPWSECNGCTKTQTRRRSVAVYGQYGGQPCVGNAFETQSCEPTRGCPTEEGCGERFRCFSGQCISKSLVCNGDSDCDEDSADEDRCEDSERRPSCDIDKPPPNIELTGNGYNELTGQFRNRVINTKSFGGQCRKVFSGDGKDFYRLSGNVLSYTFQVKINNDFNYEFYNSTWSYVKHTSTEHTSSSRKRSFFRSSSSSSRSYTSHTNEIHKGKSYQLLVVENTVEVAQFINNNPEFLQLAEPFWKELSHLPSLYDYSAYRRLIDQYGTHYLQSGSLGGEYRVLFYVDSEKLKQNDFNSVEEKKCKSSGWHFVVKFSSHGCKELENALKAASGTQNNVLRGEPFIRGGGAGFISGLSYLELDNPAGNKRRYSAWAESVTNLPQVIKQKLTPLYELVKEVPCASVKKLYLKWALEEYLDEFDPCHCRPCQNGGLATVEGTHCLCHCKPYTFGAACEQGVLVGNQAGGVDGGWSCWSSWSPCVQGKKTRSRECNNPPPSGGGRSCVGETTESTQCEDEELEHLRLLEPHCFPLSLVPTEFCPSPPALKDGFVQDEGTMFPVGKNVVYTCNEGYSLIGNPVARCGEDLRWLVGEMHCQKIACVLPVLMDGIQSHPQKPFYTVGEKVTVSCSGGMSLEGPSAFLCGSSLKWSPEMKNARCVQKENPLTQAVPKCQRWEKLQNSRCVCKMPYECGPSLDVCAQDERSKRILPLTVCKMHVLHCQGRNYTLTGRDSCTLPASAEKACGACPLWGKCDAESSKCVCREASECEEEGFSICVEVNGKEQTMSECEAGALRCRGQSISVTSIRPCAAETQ

This passage reports binding results from paper PMC12034871.

These are yes or no findings as the source states them, for the method shown. Binding seen in cells or lysates may run through a third protein. Here binding means that the protein was enriched with, or labelled near, the bait; the list need not be complete.

Regarding “complement component C7 (from UniProt P10643 23-843)”, the binding result is recorded as “binds”.
